Results published in paper PMC8150921.
No constants are given. Whether binding was seen depends on the method and setting. Binding seen in cells or lysates may run through a third protein. Binding calls can cover weak binding; strength is not graded here.

By UniProt entry, the sequences of proteins in these tests, tags left out.
UniProt P40763: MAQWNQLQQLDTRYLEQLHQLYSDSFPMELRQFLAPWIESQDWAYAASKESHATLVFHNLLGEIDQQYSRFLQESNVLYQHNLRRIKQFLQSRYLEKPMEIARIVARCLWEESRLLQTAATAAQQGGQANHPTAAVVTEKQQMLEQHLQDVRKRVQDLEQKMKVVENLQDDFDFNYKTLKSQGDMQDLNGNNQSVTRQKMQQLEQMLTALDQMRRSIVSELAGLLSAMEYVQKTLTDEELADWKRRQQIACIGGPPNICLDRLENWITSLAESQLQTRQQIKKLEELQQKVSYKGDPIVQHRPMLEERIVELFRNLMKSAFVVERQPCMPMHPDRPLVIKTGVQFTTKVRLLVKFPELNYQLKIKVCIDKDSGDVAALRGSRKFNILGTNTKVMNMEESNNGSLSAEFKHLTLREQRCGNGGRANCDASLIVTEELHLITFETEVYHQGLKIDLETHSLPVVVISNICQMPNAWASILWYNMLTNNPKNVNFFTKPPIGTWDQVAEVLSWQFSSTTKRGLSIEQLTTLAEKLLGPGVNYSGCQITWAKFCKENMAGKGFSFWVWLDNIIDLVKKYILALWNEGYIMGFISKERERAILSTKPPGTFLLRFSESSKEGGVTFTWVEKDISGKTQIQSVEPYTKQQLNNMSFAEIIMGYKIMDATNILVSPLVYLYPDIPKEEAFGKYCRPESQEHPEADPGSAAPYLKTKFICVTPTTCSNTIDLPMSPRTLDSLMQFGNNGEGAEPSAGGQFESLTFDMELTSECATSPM

Biological target: flag-tagged STAT3 (STAT3-WT-Flag) (UniProt P40763)
Assay: co-IP; Flag antibody IP from lysates of transfected HEK293 cells, Western blot for p-TrkA and total TrkA

Substance: TrkA-K538N (kinase-dead) (from UniProt P04629-2) (receptor)
- binding: binds
